# According to PubChem BioAssay AID1487 (National Center for Advancing Translational Sciences (NCATS), 2009):
# The other results are listed elsewhere or left out. The main result of the screen is listed elsewhere. These columns were measured beside it and carry no call. Compounds called inactive in the main read-out are mostly missing here. The note in brackets gives the kind of curve behind each potency; many fits are weak.
# Test: qHTS Assay for Modulators of Lamin A Splicing
# Conditions: HeLa LMNA splicing GFP/RFP minigene ratio, 48 h
# Method in brief: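 S3 HeLa cells stably expressing lamin A-EGFP splicing minigene plus DsRed2, 600 cells/well, 48 h compound exposure at 37C. Laser-scanning cytometry; analysed as GFP (500-530 nm)/RFP (575-640 nm) total intensity ratio; 0.5% DMSO vehicle.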
# [1] = measured here: GFP splicing reporter channel
# [2] = measured here: RFP viability control channel
SMILES,AC50 [1],AC50 [2]
CCOC(=O)N1CCN(CCC(=O)c2ccc(Cl)cc2)CC1,"35.5 µM [falling, single point]",–
CCOc1ncccc1C(=O)Nc1nc(C(C)(C)C)cs1,"2.51 µM [falling, full curve, poor fit]",–
COc1ccc(/C=N/OCC(=O)Nc2ccc3c(c2)OCO3)c(OC)c1,–,"11.2 µM [rising, partial curve]"
CCS(=O)(=O)N1CCN(c2ccc(Cl)cc2[N+](=O)[O-])CC1,–,"17.8 µM [rising, partial curve]"
Cn1cc(C(=O)O)c(=O)c2cc(S(=O)(=O)N3CCOCC3)ccc21,"0.00282 µM [falling, full curve, poor fit]","0.708 µM [falling, full curve, poor fit]"
CNC(=O)CC1C(=O)N(c2ccc(Cl)cc2)C(=S)N1CCc1ccc(OC)c(OC)c1 (stereo not given),"31.6 µM [falling, single point]","35.5 µM [falling, single point]"
CCOC(=O)c1cnc2c(cnn2C)c1Cl,"5.62 µM [rising, single point]",–
COc1ccc(C2=C(C=C(C#N)C#N)C(c3ccccc3C)c3ccccc3O2)cc1OC (stereo not given),"12.6 µM [rising, single point]","14.1 µM [rising, partial curve]"
O=C(CNS(=O)(=O)c1ccc(F)cc1)Nc1ccc(C(F)(F)F)cc1,–,"35.5 µM [rising, single point]"
Cc1ccc(C)c(NC(=O)c2cnc3sc(N4CCOCC4)nn3c2=O)c1,–,"0.0141 µM [falling, single point]"
COc1ccc(S(=O)(=O)N(CCC#N)Cc2ccco2)cc1OC,–,"35.5 µM [falling, single point]"
Cc1ccc(S(=O)(=O)N(C(=O)c2ccncc2)c2ccc(OC(=O)c3ccncc3)c3ccccc23)cc1,"14.1 µM [rising, single point]","31.6 µM [rising, single point]"
COc1ccccc1-c1c(C(F)(F)F)oc2cc(OC(=O)c3ccc([N+](=O)[O-])cc3)ccc2c1=O,"5.62 µM [rising, single point]","35.5 µM [falling, single point]"
COc1ccc(-c2nc3cc(NC(=O)COc4ccc(C)c(C)c4)ccc3o2)cc1,–,"0.0891 µM [falling, full curve, poor fit]"
CCOc1cc(C(=O)OCC(=O)Nc2cc(C)on2)ccc1OCC(C)C,"35.5 µM [rising, partial curve, poor fit]",–
CC(NC(=O)c1noc2c1CCCCC2)c1ccccc1 (stereo not given),"11.2 µM [rising, single point]","11.2 µM [rising, partial curve]"
CCCNc1ncnc2c1c(-c1ccccc1)cn2-c1ccccc1,"35.5 µM [falling, single point]",–
Cc1ccc(-n2nnnc2CCl)cc1,–,"17.8 µM [falling, partial curve]"

# Molecules listed so far with fluorine (two):
SMILES,AC50 [1],AC50 [2]
O=C(CNS(=O)(=O)c1ccc(F)cc1)Nc1ccc(C(F)(F)F)cc1,–,"35.5 µM [rising, single point]"
COc1ccccc1-c1c(C(F)(F)F)oc2cc(OC(=O)c3ccc([N+](=O)[O-])cc3)ccc2c1=O,"5.62 µM [rising, single point]","35.5 µM [falling, single point]"

# More entries

SMILES,AC50 [1],AC50 [2]
N#Cc1ccccc1NC(=S)Nc1ccc(F)cc1,–,"22.4 µM [falling, partial curve, poor fit]"
O=C(CN(Cc1ccc(Cl)c(Cl)c1)S(=O)(=O)c1ccccc1)N/N=C\c1ccc2c(c1)OCO2,"7.94 µM [rising, partial curve, poor fit]","15.8 µM [rising, partial curve]"
COCCn1c(C)cc(O)c(C(c2ccccc2Cl)N2CCCCC2)c1=O (stereo not given),"6.31 µM [falling, single point]","3.98 µM [falling, single point]"
Cc1cc(O)cc(O)c1-c1onc(C(F)(F)F)c1-c1cscn1,"4.47 µM [rising, full curve, poor fit]","10 µM [rising, partial curve]"
O=C(Cc1coc2ccc3ccccc3c12)N1CCN(c2ncccn2)CC1,–,"20 µM [rising, single point]"
COCCNC(=S)N(Cc1cccs1)Cc1cc2cccc(C)c2[nH]c1=O,"0.02 µM [falling, full curve, poor fit]","0.316 µM [falling, full curve]"
S=C(Nc1ccc2cn[nH]c2c1)Nc1ccccc1Cl,"14.1 µM [rising, single point]",–
Cc1ccc(OCC(=O)NNC(=S)NCc2ccccc2)cc1,"15.8 µM [rising, single point]",–
O=C1NC(=S)S/C1=C\c1ccc(SCc2ccccc2)o1,–,"11.2 µM [rising, partial curve]"
C=CCNc1sc(C(=O)c2ccccc2)c(N)c1-c1nc2ccccc2s1,"11.2 µM [rising, single point]",–
CCOC(=O)c1c(C)n(C)c2ccc(OCC(O)Cn3nc(C)c(Br)c3C)cc12 (stereo not given),"31.6 µM [rising, single point]","20 µM [rising, single point]"
CN(C)CCCN(C(=O)CCc1ccccc1)c1nc2ccc(Br)cc2s1,"1.26 µM [rising, single point]","1.26 µM [rising, single point]"
O=C(c1cccc(Cl)c1)N1CCC(=O)N(C(COCc2cccc(Cl)c2)Cc2ccccc2)CC1 (stereo not given),"10 µM [rising, partial curve, poor fit]","14.1 µM [rising, partial curve]"
CCOC(=O)C(C)n1nc(/C=C/c2ccc(OC)cc2)ccc1=O (stereo not given),"12.6 µM [falling, partial curve]",–
Cc1ccccc1Cn1nc(C)c(NC(=O)c2cc3nc(-c4ccco4)cc(C(F)(F)F)n3n2)c1C,"10 µM [rising, partial curve]","10 µM [rising, partial curve]"
Cc1cccc(N2CCN(C(=O)C(NS(=O)(=O)c3cccs3)c3ccccc3)CC2)c1C (stereo not given),"14.1 µM [rising, single point]","17.8 µM [rising, single point]"
O=[N+]([O-])c1cccc(S(=O)(=O)N/N=C/c2ccc(O)cc2)c1,"0.0794 µM [rising, full curve, poor fit]",–
